Laboratory results: PubChem BioAssay AID1347076 (National Center for Advancing Translational Sciences (NCATS), 2019)
Out of some 400,000 compounds screened, about 13,000 (3.2%) were called active. The inconclusive results got no clear call from the source; some entries with a clear call stand among them for comparison. The call rests on the fitted dose curve; in most records, active means well fitted cell-killing curve with a large enough effect; inconclusive means small, poorly fitted or top-dose-only effect, or effect the other way; inactive means flat fitted curve, though single readings scatter. Potencies of inconclusive entries are doubtful fits and often do not repeat.

Assay: qHTS assay for MDR1-selective chemotherapeutics: Primary screen using the drug-selected MDR subline cells KB-V1; further: nearly all actives have a fitted effect of over 60% in size
Conditions: KB-V1 MDR cells viability, CellTiter-Glo, 72 h; activity change, negative = cytotoxicity: at 46.1 µM (top of the series)
In short: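 Luminescent ATP read-out (CellTiter-Glo, 10 min) measures survival of drug-selected KB-V1 MDR cells after 72 h, 37 degrees C compound exposure. Medium: phenol-red-free DMEM, 10% FBS. Values from fitted concentration-response curves.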
On the % scale 0 is the no-effect control and ±100 the full control effect; potency means the concentration at half of the fitted maximal effect.

Structure (SMILES)	Potency	activity change, negative = cytotoxicity
Cc1cc(C(=O)NCc2ccccc2Cl)c2c(C)nn(-c3ccccc3)c2n1	inconclusive: 4.11 µM [cytotoxic, partial curve, poor fit]	
COc1ccc(NC(=O)N(C)C[C@H]2Oc3ccc(NC(=O)c4ccncc4)cc3C(=O)N([C@H](C)CO)C[C@@H]2C)cc1		inactive: -3.08%
COc1ccccc1N1CCN(CC(=O)Nc2ccccc2C(=O)NCCc2ccccc2)CC1	inconclusive: 18.4 µM [cytotoxic, single point]	
CCCCCCSc1ccc([C@H]2N[C@@](Cc3ccccc3)(C(=O)OC)[C@H]3C(=O)N(C)C(=O)[C@@H]23)cc1	active: 16.4 µM	
CC(C)c1csc(CN2CCC(n3nccc3NC(=O)Cc3ccccc3)CC2)n1	inconclusive: 23.1 µM [cytotoxic, partial curve]	
O=C(NCc1cc(C(F)(F)F)ccc1Cl)c1cccc2c1C(=O)c1ccc(N3CCC(N4CCCCC4)CC3)cc1S2(=O)=O	inconclusive: 29.1 µM [cytotoxic, single point]	
CSCC[C@H](NC(=O)N1CCn2c1nc1ccccc12)C(=O)NCc1ccc2c(c1)OCO2	inconclusive: 18.4 µM [cytotoxic, single point]	
O=C(N/N=C/c1cc(Br)cs1)c1ccc2c(c1)OCCO2	inconclusive: 16.4 µM [cytotoxic, partial curve]	
COc1ccc(COC(=O)c2sc3nc4n(c(=O)c3c2C)CCC4)cc1	active: 8.2 µM	
CC(C)(O)C#Cc1ccc(CN2CCN(Cc3ccccc3)C(CCO)C2)s1 (centres undefined)	inconclusive: 5.17 µM [cytotoxic, full curve]	
Cc1ccc(C2=NN(S(C)(=O)=O)C(c3ccc4c(c3)OCO4)C2)cc1 (centres undefined)	inconclusive: 29.1 µM [cytotoxic, single point]	
O=C(NCc1ccccc1CN1CCCC1)c1ccc(Cl)c(N2CCCC2=O)c1		inactive: -13%
CCCc1nc(N2CCOCC2)c(C#N)c2c1CCCC2	inconclusive: 23.1 µM [cytotoxic, single point]	
CC1CC(C)CN(S(=O)(=O)N2CCC(C(=O)NCCc3ccccc3)CC2)C1 (centres undefined)		inconclusive: -19.1%
Cc1ccc(C(=O)NCCCn2ccnc2)cc1[N+](=O)[O-]		inactive: 3.8%
CCOc1ccc(N(C)S(=O)(=O)c2ccc(C)c(C(=O)Nc3nnc(C4CC4)s3)c2)cc1		inactive: -12.7%
Cc1nc(-c2ccccc2)sc1C(=O)NN		inactive: -3.55%
CCCCC(=O)N(C)c1c(C)nc2ccc(C(=O)NCCOc3ccc(OC)cc3)cn12	inconclusive: 18.4 µM [cytotoxic, partial curve]	
COCCSc1ccccc1C(=O)Nc1ccc(Br)cc1		inactive: -2.74%
O=C(c1ccco1)N1N=C2CCCCCC2C1(O)C(F)(F)F (centres undefined)		inactive: 2.2%
CCNC(=O)c1sc(=S)n(-c2ccc(C)cc2)c1N	inconclusive: 20.6 µM [rising, partial curve, poor fit]	
Cc1cc2cc(CN(CCN3CCOCC3)C(=O)Nc3ccccc3F)c(=O)[nH]c2cc1C		inactive: 1.01%
COc1ccc(S(=O)(=O)N2CCN(CCCOc3ccc(F)cc3)CC2)cc1OC	inconclusive: 10.3 µM [cytotoxic, partial curve, poor fit]	

Structure (SMILES)	Potency	activity change, negative = cytotoxicity
Nc1cc(N)c2c(c1)C(=O)c1ccccc1-2	inconclusive: 0.0065 µM [cytotoxic, full curve, poor fit]	
Cc1ccc(Cl)cc1N(C(=O)c1csnn1)C(C(=O)NC1CCCC1)c1ccco1 (centres undefined)		inactive: -1.9%
CCOc1ccc(-c2nc(CSCC(=O)NCc3ccc(Cl)cc3)c(C)o2)cc1		inactive: -5.62%
CCN(CC)CCNC(=O)c1ccc2c(=O)n3nc(Nc4ccccc4OC)sc3nc2c1		inactive: 1.83%
Cc1ccccc1NC(=O)Cc1nc(-c2c[nH]c(C(=O)N3CCCC3)c2)cs1		inactive: -7.85%
CCn1c(COc2ccc(OC)cc2)nc2ccccc21	inconclusive: 20.6 µM [cytotoxic, single point]	
Oc1ccc(Nc2nc(-c3ccccc3O)nc3ccccc23)cc1		inactive: -2.38%
CCOC(=O)C1=C(C)NC(=O)NC1c1cccc(OC)c1OCc1ccccc1Cl (centres undefined)	active: 13 µM	
CCCCCCN1C[C@H](n2cc(-c3ccc(F)cc3)nn2)[C@@H](O)C[C@@H]1c1ccc(Cl)cc1	inconclusive: 29.1 µM [cytotoxic, single point]	
COc1cccc(C(=O)Nc2cccc(C(=O)NCC(C)C)c2)c1	active: 18.4 µM	
COc1ccc(-c2csc(N(C)C(=O)c3ccco3)n2)cc1	inconclusive: 23.1 µM [cytotoxic, single point]	
CCNC(=S)N1CCN(S(=O)(=O)/C=C/c2ccccc2)CC1	inconclusive: 9.2 µM [cytotoxic, partial curve, poor fit]	
C[C@@H]1CN([C@H](C)CO)C(=O)CCCn2cc(nn2)CO[C@H]1CN(C)S(=O)(=O)c1ccc(Oc2ccccc2)cc1		inactive: 0%
O=C(CCN1CCOCC1)N1CCCC(Nc2ccc(F)cc2)C1 (centres undefined)	inconclusive: 18.4 µM [rising, partial curve]	
Cc1ccc2c(c1C)NC(=O)C21N2CCCC2C(C(=O)c2ccc3ccccc3c2)C12C(=O)Nc1ccccc12 (centres undefined)	inconclusive: 20.6 µM [cytotoxic, single point]	
Clc1ccc(-c2cc(C3CCNCC3)[nH]n2)cc1		inactive: 18.1%
O=C(c1cccc(Cl)c1)N1CCC(c2nc3ccccc3[nH]2)CC1		inactive: 5.72%
CCCn1c2ccccc2c2cnn(CC(=O)N(CCCOC)Cc3ccco3)c(=O)c21	inconclusive: 25.9 µM [cytotoxic, partial curve, poor fit]	
O=C(NCCCCc1ccccc1)c1cc([N+](=O)[O-])cc([N+](=O)[O-])c1	inconclusive: 20.6 µM [cytotoxic, single point]	
N#Cc1ccc(Oc2ccc(NC(=O)C3CC=CCC3C(=O)O)cc2)cc1 (centres undefined)		inactive: -1.61%
CC(=O)n1nc(-c2cccc(C)c2)nc1SCC(=O)Nc1ccccc1		inactive: -13.3%
COc1ccccc1C(=O)NNC(=O)C(=O)NC1CCCCC1	inconclusive: 16.4 µM [cytotoxic, partial curve, poor fit]	
CCn1cc(C(=O)NCCCN2CCCC(C)C2)c(=O)c2cc(S(=O)(=O)N3CCOCC3)ccc21 (centres undefined)	inconclusive: 1.64 µM [rising, single point]	

4 entries from above, field by field.
C[C@@H]1CN([C@H](C)CO)C(=O)CCCn2cc(nn2)CO[C@H]1CN(C)S(=O)(=O)c1ccc(Oc2ccccc2)cc1
  activity change, negative = cytotoxicity: inactive: 0%
O=C(NCCCCc1ccccc1)c1cc([N+](=O)[O-])cc([N+](=O)[O-])c1
  Potency: inconclusive: 20.6 µM [cytotoxic, single point]
N#Cc1ccc(Oc2ccc(NC(=O)C3CC=CCC3C(=O)O)cc2)cc1 (centres undefined)
  activity change, negative = cytotoxicity: inactive: -1.61%
COc1ccccc1C(=O)NNC(=O)C(=O)NC1CCCCC1
  Potency: inconclusive: 16.4 µM [cytotoxic, partial curve, poor fit]

Later entries

Structure (SMILES)	Potency	activity change, negative = cytotoxicity
CC1=C(C(=O)OC(C)(C)C)C(c2ccc3ccccc3c2)NC(=O)N1C (centres undefined)	inconclusive: 20.6 µM [cytotoxic, single point]	
S=C(NNc1nc(Nc2ccccc2)nc(N2CCCCC2)n1)NC1CCCCC1		inactive: 7.17%
O=C1C(Cl)=C(O)C2(Cl)C(Cl)=C(Cl)C12Cl (centres undefined)	inconclusive: 29.1 µM [cytotoxic, single point]	
Cc1cc(/C=C2/SC(=O)N(CC(=O)OC(C)C)C2=O)c(C)n1C	inconclusive: 23.1 µM [cytotoxic, single point]	
CCOc1ccccc1C(=O)NC1CCN(Cc2nnnn2C2CCCC2)CC1	active: 9.2 µM	
O=C(CCCN1C(=O)c2cccc3cccc(c23)C1=O)N1CCN(c2ccccn2)CC1	inconclusive: 1.64 µM [cytotoxic, full curve]	
COc1ccc(-n2c(=O)c(CCC(=O)N3CCN(c4ccccc4O)CC3)nc3ccccc32)cc1	inconclusive: 6.51 µM [cytotoxic, full curve]	
O=C(NNC(=O)c1cccnc1SCc1cccc([N+](=O)[O-])c1)c1cccnc1	inconclusive: 25.9 µM [rising, single point]	
O=C(NCc1ccco1)c1ccc(Br)s1	inconclusive: 29.1 µM [cytotoxic, single point]	
COc1ccc(S(=O)(=O)N(C)C)cc1NC(=O)CSc1nnc(-c2cccnc2)o1		inactive: -8.82%
C/C(=N\NC(=O)c1nn(C)c(C)c1Br)c1cccc(NC(=O)c2ccc(F)cc2)c1	inconclusive: 8.2 µM [cytotoxic, partial curve]	
COc1ccc(NC(=O)CSc2nnc(NC(=O)c3ccco3)s2)cc1		inactive: 0%
CCOC(=O)C(=CNc1ncccc1C)C(=O)OCC	inconclusive: 16.4 µM [cytotoxic, single point]	
CN1CCN(C(=S)Nc2cc([N+](=O)[O-])ccc2Cl)CC1	inconclusive: 18.4 µM [cytotoxic, single point]	
COc1ccccc1-c1cnc(C(O)c2ccc(C)c(F)c2)[nH]1 (centres undefined)	inconclusive: 20.6 µM [cytotoxic, single point]	
CCOC(=O)C1CCCN(c2cc(C)nc3cc(-c4ccc(F)cc4)nn23)C1 (centres undefined)		inactive: -13.1%
COc1ccc(CNC(=O)c2ccccc2NC(=O)C2=C(C)OCCS2)cc1		inactive: -20.8%
CC1(c2ccc(Cl)cc2)NC(=O)N(CC(=O)N2CCN(C(=O)c3cccs3)CC2)C1=O (centres undefined)	inconclusive: 18.4 µM [rising, partial curve, poor fit]	
C#Cc1ccc([C@H]2C=C(C(=O)NCc3ccccc3)O[C@@H](OCC)[C@@H]2CCCO)cc1	inconclusive: 29.1 µM [cytotoxic, single point]	
Cc1ccsc1C(=O)C1CCCN(Cc2cc(F)ccc2-n2cccn2)C1 (centres undefined)	inconclusive: 1.46 µM [cytotoxic, full curve]	
CC1(C)CC(=O)C(C(C2=C(O)CC(C)(C)CC2=O)c2ccc(Br)s2)C(=O)C1 (centres undefined)	active: 20.6 µM	
CCOC(=O)Nc1ccc2c(c1)Nc1ccccc1S2	inconclusive: 32.6 µM [cytotoxic, partial curve, poor fit]	
COCC(=O)Nc1ccc(N2CCOCC2)c(S(=O)(=O)Nc2ccc(OC)cc2)c1	inconclusive: 20.6 µM [cytotoxic, single point]	
